The assay concerns the target endogenous Smad4 of C2C12 cells (mouse) (UniProt P97471). Briefly: co-IP from C2C12 whole lysates.

Sequences of proteins named here, by UniProt entry; tags and fusion partners are left off.
UniProt P97471: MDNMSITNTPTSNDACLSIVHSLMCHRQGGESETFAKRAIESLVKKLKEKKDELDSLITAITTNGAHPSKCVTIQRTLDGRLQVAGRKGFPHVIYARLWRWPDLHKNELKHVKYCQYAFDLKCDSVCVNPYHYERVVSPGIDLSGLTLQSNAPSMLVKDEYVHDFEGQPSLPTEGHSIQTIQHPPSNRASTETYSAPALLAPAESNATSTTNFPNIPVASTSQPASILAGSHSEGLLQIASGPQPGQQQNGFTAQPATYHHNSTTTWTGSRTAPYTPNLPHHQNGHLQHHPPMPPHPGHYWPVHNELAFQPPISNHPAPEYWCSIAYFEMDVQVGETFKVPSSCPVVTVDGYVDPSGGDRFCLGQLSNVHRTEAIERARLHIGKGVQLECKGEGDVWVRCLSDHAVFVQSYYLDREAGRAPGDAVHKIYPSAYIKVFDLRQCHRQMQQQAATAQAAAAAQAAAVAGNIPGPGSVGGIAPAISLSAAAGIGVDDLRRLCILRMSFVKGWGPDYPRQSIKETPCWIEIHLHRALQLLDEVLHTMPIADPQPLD

These are yes or no findings as the source states them, for the method shown. Binding seen in cells or lysates may run through a third protein. Some entries that bind do so weakly or less than the wild type.

B1: endogenous cGKIβ of C2C12 cells (enzyme, mouse, UniProt P0C605-2 1-686, looked up)
chain: MGTLRDLQYALQEKIEELRQRDALIDELELELDQKDELIQKLQNELDKYRSVIRPATQQAQKQSASTLQGEPRTKRQAISAEPTAFDIQDLSHVTLPFYPKSPQSKDLIKEAILDNDFMKNLELSQIQEIVDCMYPVEYGKDSCIIKEGDVGSLVYVMEDGKVEVTKEGVKLCTMGPGKVFGELAILYNCTRTATVKTLVNVKLWAIDRQCFQTIMMRTGLIKHTEYMEFLKSVPTFQSLPDEILSKLADVLEETHYENGEYIIRQGARGDTFFIISKGQVNVTREDSPSEDPVFLRTLGKGDWFGEKALQGEDVRTANVIAAEAVTCLVIDRDSFKHLIGGLDDVSNKAYEDAEAKAKYEAEAAFFANLKLSDFNIIDTLGVGGFGRVELVQLKSEESKTFAMKILKKRHIVDTRQQEHIRSEKQIMQGAHSDFIVRLYRTFKDSKYLYMLMEACLGGELWTILRDRGSFEDSTTRFYTACVVEAFAYLHSKGIIYRDLKPENLILDHRGYAKLVDFGFAKKIGFGKKTWTFCGTPEYVAPEIILNKGHDISADYWSLGILMYELLTGSPPFSGPDPMKTYNIILRGIDMIEFPKKIAKNAANLIKKLCRDNPSERLGNLKNGVKDIQKHKWFEGFNWEGLRKGTLTPPIIPSVASPTDTSNFDSFPEDSDEPPPDDNSGWDIDF
With B1, the binding result was “binds”.

The values are drawn from US20110045568A1, “METHOD FOR RESTORING BMP-RECEPTOR SIGNALING IN A CELL” (FREIE UNIVERSITÄT BERLIN, priority 2008, published 2011).
